No constants are given. Whether binding was seen depends on the method and setting. Some results given as binding are weak or reduced against the parent protein; the word gives no strength.

Experiment [1] addresses 201phi2-1 chimallin ΔNTS (Δ1–64; residues 65–631) (bacteriophage 201phi2-1) (UniProt B3FIW8). Kind of experiment: SEC-MALS; 100 μl of protein at 2 mg ml^-1 on Superose 6 Increase 10/300 GL in buffer B (20 mM Tris pH 7.5, 250 mM NaCl, 2 mM β-mercaptoethanol); both purified. (Size exclusion chromatography separates by hydrodynamic size, large species first.)
The target in experiment [2] is 201phi2-1 chimallin ΔCTS1+2 (Δ583–631; residues 1–582) (bacteriophage 201phi2-1) (UniProt B3FIW8). The experiment is described as above.
Experiment [3] has as its target Goslar chimallin (gp189), phage-encoded, in the nuclear shell of infected cells (bacteriophage Goslar). Kind of experiment: cryo-EM structure; cryoFIB-ET and subtomogram averaging of the phage nuclear shell in infected cells (201phi2-1 in P. chlororaphis, 50–60 mpi; Goslar in E. coli APEC 2248, about 30 mpi).
Experiment [4] concerns the target 201phi2-1 chimallin (gp105), phage-encoded, in the nuclear shell of infected cells (bacteriophage 201phi2-1) (UniProt B3FIW8). Described as above.

On to “201phi2-1 chimallin ΔNTS (Δ1–64; residues 65–631) (from UniProt B3FIW8 65-631) (domain or fragment)”, for which the binding result in experiment [1] was “no binding (tested: 2 mg ml^-1)”.
For the molecule “201phi2-1 chimallin ΔCTS1+2 (Δ583–631; residues 1–582) (from UniProt B3FIW8 1-582) (domain or fragment)”, the binding result in experiment [2] was “no binding (tested: 2 mg ml^-1)”.

B1: Goslar chimallin (gp189), full length, recombinant (natural protein, bacteriophage Goslar, UniProt A0A482GDX1 1-631, looked up)
chain: MGLDVRNNGNDNVEIRAAETRTAQRADEALETAADFAGQPKVTHTMRTINRTLSRRISRNTGSEQVLNLRRLMEKYLEDTRFKDDFIFVAVDPNQYSVPYPTLVVMSGAKVGDHNHFFGYVLPLVAGLAPLPRREEQGPHGNILVPRTWVDNLNGTFINEVMAAMYAAIGGKSNGTARIAGLAVVTNEITAESAHLATTLLSAADNAIQTAIEIRLGDKLGLPQFNLGMMASDQPISSVQYNTSGMQDSDIVGNPVRSDITVTISNRIRQAMSDYDSQQRLVATTGYIDLTYSPQNPTFNQGPVLVNGYPVPPTVQYQPRYVMTSAYPLELDAFTPNTFVLGLIGTIATLNSGMAWAQSLISNAARGIGPHNPGALAMVLDPEVTAPLDLSTQTNEQIYKFLQQVLYPSLLISIDVPEEGEYSWLLRMIPAAEKIYTGKVEGEVREISEGYKALYRAFDDVTLGCFSKKYQYGLPLVYATGNRIPLGHYNHQDGHRHDIRDMDDLYMMNITNPDTVEAWEDSFDRTDMTMSQRVVARHEIIDRVLSGSWEQTGWAMRYDFDPLALQALIEAAADAGFTIRPENIQHLAGTAVRGNMAARARGLGNISGNIYARSDRPNVGVNNMGGAFNLF
notes: Chimallin (gp189) of E. coli jumbo bacteriophage Goslar, 631 amino acids, NCBI YP_009820873.1; Cloned in UC Berkeley Macrolab vector 2-BT (Addgene #29666) with a TEV-cleavable His6 tag; tag removed before SEC; not shown: His6, N-terminal, cleaved
For B1, in experiment [3], the binding result was “binds”.

B2: 201phi2-1 chimallin (gp105), full length, recombinant (natural protein, bacteriophage 201phi2-1, UniProt B3FIW8 1-631, looked up)
chain: MIRDTATNTTQTQAAPQQAPAQQFTQAPQEKPMQSTQSQPTPSYAGTGGINSQFTRSGNVQGGDARASEALTVFTRLKEQAVAQQDLADDFSILRFDRDQHQVGWSSLVIAKQISLNGQPVIAVRPLILPNNSIELPKRKTNIVNGMQTDVIESDIDVGTVFSAQYFNRLSTYVQNTLGKPGAKVVLAGPFPIPADLVLKDSELQLRNLLIKSVNACDDILALHSGERPFTIAGLKGQQGETLAAKVDIRTQPLHDTVGNPIRADIVVTTQRVRRNGQQENEFYETDVKLNQVAMFTNLERTPQAQAQTLFPNQQQVATPAPWVASVVITDVRNADGIQANTPEMYWFALSNAFRSTHGHAWARPFLPMTGVAKDMKDIGALGWMSALRNRIDTKAANFDDAQFGQLMLSQVQPNPVFQIDLNRMGETAQMDSLQLDAAGGPNAQKAAATIIRQINNLGGGGFERFFDHTTQPILERTGQVIDLGNWFDGDEKRDRRDLDNLAALNAAEGNENEFWGFYGAQLNPNLHPDLRNRQSRNYDRQYLGSTVTYTGKAERCTYNAKFIEALDRYLAEAGLQITMDNTSVLNSGQRFMGNSVIGNNMVSGQAQVHSAYAGTQGFNTQYQTGPSSFY
notes: Cloned in UC Berkeley Macrolab vector 2-BT (Addgene #29666) with a TEV-cleavable His6 tag; tag removed before SEC; also called ChmA; FL; not shown: His6, N-terminal, cleaved
In the case of B2, in experiment [4], the binding entry was “binds”.
